Data source: PubChem BioAssay AID504791 (Drosophila RNAi Screening Center, 2011)

Test: 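Factors in Argonaute-based small RNA production and activity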 (primary screen)
Cells: Drosophila S2-derived reporter cells
Reagents: long dsRNA against Drosophila genes, about 150-250 ng dsRNA per well (siRNA assay); about 80-120 ng (miRNA assay)
Time to read-out: about 5 days (siRNA assay); about 4 days (miRNA assay)
Conditions: copper sulfate induction of reporters: 25 µM (siRNA assay); 200 mM stated (miRNA assay), 1-2 days before reading
Measurement: 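Per-well ratio of Renilla over firefly light, expressed relative to that plate's average ratio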
Rule for the call: 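a well was a first-pass pick when its plate-scaled ratio rose above 1.5 (siRNA assay) or 1.6 (miRNA assay), or dropped below 0.6; a gene counted only if two separate dsRNAs agreed on retest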
In all, the deposit lists about 23,000 reagents; shown is an unselected part of those with a known target gene and a result. Over the whole deposit, 199 (0.86%) got an active call. 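Plate-scaled ratios behind the calls are not deposited; printed light signals are raw; many rows marked increased or decreased are still called inactive.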 Entries without a mark were called inactive. Reagents against one gene are numbered here. A plus sign joins genes that one reagent is predicted to hit. Not stated in the record: the direction of the score.

| Target gene | reagent no. | stable siRNA reporter change | miRNA reporter change | stable assay Renilla, run 1 (luminescence) | stable assay firefly, run 1 (luminescence) |
| --- | --- | --- | --- | --- | --- |
| Tsp42Er | 1 | – | – | 6731 | 4.76e5 |
| Tsp86D | 1 | – | – | 6727 | 4.02e5 |
| CG11619 | 1 | – | – | 7384 | 5.08e5 |
| Dhc16F | 1 | – | – | 5844 | 4.14e5 |
| CG44153 | 1 | – | – | 12803 | 1.42e6 |
| CG44153 | 2 | – | – | 8513 | 6.08e5 |
| CG44153 | 3 | – | – | 8283 | 5.03e5 |
| CG44153 | 4 | – | – | 7949 | 5.67e5 |
| pst | 1 | – | – | 7698 | 5.03e5 |
| CG32027 (retired record) | 1 | – | – | 5902 | 4.45e5 |
| CG11170 | 1 | – | – | 11277 | 4.86e5 |
| Sodq | 1 | – | – | 6918 | 3.82e5 |
| Atox1 | 1 | – | – | 5459 | 5.28e5 |
| Phf5a | 1 | reporter ratio lowered past the hit cutoff (active) | reporter ratio lowered past the hit cutoff | 7306 | 8.00e5 |
| Ubc10 | 1 | – | – | 6030 | 4.26e5 |
| CG31793 | 1 | – | – | 8163 | 5.50e5 |
| CG4751 | 1 | – | – | 7962 | 6.18e5 |
| mRpS25 | 1 | – | – | 4666 | 4.20e5 |
| CG17633 | 1 | – | – | 6926 | 3.68e5 |
| Smn | 1 | – | – | 12087 | 4.77e5 |
| CG2124 | 1 | – | – | 5168 | 4.18e5 |
| Cdc27 | 1 | – | – | 6843 | 3.67e5 |

Individual results from above.
Under “stable assay Renilla, run 1 (luminescence)”, Smn reads 12087
Entry for mRpS25 in “stable assay firefly, run 1 (luminescence)”: 4.20e5

Additional results follow.
| Target gene | reagent no. | stable siRNA reporter change | miRNA reporter change | stable assay Renilla, run 1 (luminescence) | stable assay firefly, run 1 (luminescence) |
| --- | --- | --- | --- | --- | --- |
| bocks | 1 | – | – | 9605 | 5.51e5 |
| CG32276 | 1 | – | – | 5374 | 4.58e5 |
| CG31265 | 1 | – | – | 7366 | 3.99e5 |
| Gas8 | 1 | – | – | 7802 | 7.03e5 |
| Ak3 | 1 | – | – | 7514 | 4.78e5 |
| CG18675 | 1 | – | – | 5603 | 3.00e5 |
| CG42523 | 1 | – | – | 6111 | 4.33e5 |
| Torsin | 1 | – | – | 3720 | 3.23e5 |
| dnk | 1 | reporter ratio lowered past the hit cutoff | – | 6570 | 5.16e5 |
| CG12426 | 1 | – | – | 6570 | 4.14e5 |
| CG33689 | 1 | – | – | 5874 | 4.64e5 |
| CG6567 + CG4565 | 1 | – | – | 5855 | 3.53e5 |
